Consider four molecules from patent US20220315648A1.

Sequences of proteins named here, by UniProt entry; tags and fusion partners are left off. A change or cut given only in a name is not applied to a line headed by its entry.
UniProt Q13148: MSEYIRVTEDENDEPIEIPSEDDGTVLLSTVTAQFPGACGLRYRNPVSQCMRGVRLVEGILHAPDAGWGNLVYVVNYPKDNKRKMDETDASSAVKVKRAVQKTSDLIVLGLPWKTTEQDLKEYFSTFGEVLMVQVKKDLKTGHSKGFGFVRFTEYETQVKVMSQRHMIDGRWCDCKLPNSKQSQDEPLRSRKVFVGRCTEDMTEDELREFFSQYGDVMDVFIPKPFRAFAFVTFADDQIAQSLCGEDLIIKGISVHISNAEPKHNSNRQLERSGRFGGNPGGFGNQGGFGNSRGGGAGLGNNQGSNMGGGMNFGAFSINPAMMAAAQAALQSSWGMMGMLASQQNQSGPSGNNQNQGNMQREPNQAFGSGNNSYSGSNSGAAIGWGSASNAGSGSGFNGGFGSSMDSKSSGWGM

Test [1] has as its target aggregated TDP-43 in brain tissue from FTD subjects (human) (UniProt Q13148). Briefly: IHC on frozen FTD brain sections.
The target is the same in test [2]. The test is described as follows: immunofluorescence on 10 µm frozen sections of FTD type A frontal cortex, fluorescent secondary antibody, DAPI for nuclei.

These are yes or no findings as the source states them, for the method shown. Some results given as binding are weak or reduced against the parent protein; the word gives no strength.

B1: ACI-7071-809D9-Ab2 (antibody, IgG2b, V domains shown)
VH: QVQLQQSGAELVRPGVSVKISCKGSGYKFTDYSMHWVKQSHTKSLEWIGVISTYYGDTTYNQKFKGKATITVDKSSSTAYMELARLTSEDSAIYYCATYGNFPASFSYWGQGTLVTVSA
VL: DIVMTQAAPSIPVTPGESVSISCRSSKSLLHSNGNTYLYWFLQRPGQSPQLLIYRMSNLASGVPDRFSGSGSGTAFTLRISRVEAEDVGVYYCMQHLEYPFTFGSGTKLEIK
Take B1: the binding result in test [1] and in test [2] was “binds” throughout.

B2: ACI-7069-646B7-Ab1 (antibody, IgG2b, V domains shown)
VH: QVQLKESGPGLVAPSQSLSITCTVSGFSLTNFGVHWVRQPPGKGLEWLGIMWAGGSTNYNSALMSRLSISKDNSKSQVFLKMNSLQTDDTAMYYCVIYKTGFAYWGQGTLVTVSA
VL: DVLMTQTPLSLPVSLGDQASISCRSSQSIVHAIGNTYLEWYLQKPGQSPKLLIYKVSNRFSGVPDRFSGSGSGTDFTLKISRVEAEDLGVYYCFQGSHVPFTFGSGTKLEIK
Take B2: the binding result in test [1] and in test [2] was “binds” throughout.

B3: ACI-7071-809F12-Ab1 (antibody, IgG2b, V domains shown)
VH: QVQLKESGPGLVAPSQSLSITCTVSGFSLNRNGVQWVRQPPGKGLEWLGVIWPGGSTNCNSALMSRLSISKDNSKSQVFLKMNSLHTDDTGIYYCARVGGNYVWDYNNYAWGQGTLVTVSA
VL: DVLMTQTPLSLPVSLGDQASISCRSSQNIVHSIGNTYLEWYLQKPGQSPKLLIYKVSNRFSGVPDRFSGSGSGTDFTLKISRVEAEDLGVYYCFQGSHVPYTFGGGTKLEIR
Take B3: the binding result in test [1] and in test [2] was “binds” throughout.

B4: ACI-7069-641H1-Ab2 (antibody, IgG2b, V domains shown)
VH: QVQLKESGPGLVAPSQSLSITCTVSGFSLTNYGVHWVRQPPGKGLEWLGLMWAGGSTNYNSALMSRLSISKDNSKSQVFLKMNSLQTDDTAMYYCVIYRTGFAYWGQGTLVTVSA
VL: DVLMTQTPLSLPVSLGDQASISCRSSQSIVHTIGNTYLEWYLQKPGQSPKLLIYKVSNRFSGVPDRFSGSGSGTDFTLKISRVEAEDLGVYYCFQGSHVPFTFGSGTKLEIK
For B4, the binding result in test [1] and in test [2] was “binds” throughout.
